# Laboratory results from the supplement of paper PMC8728848.
# This is one part of the list.
# Tests used:
# Assay in all cases: glycan array binding signal (z-score within array); higher = stronger binding
# Conditions in all cases: glycan notation: IUPAC condensed, linker removed
# [1] = molecular target: GlcNAc(b1-3)Gal(b1-4)GlcNAc(b1-3)Gal(b1-4)GlcNAc(b1-3)GalNAc
# In short: (§1)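 Columns mapping to the same glycan were averaged after glycan names were converted to IUPAC-condensed notation. The data come from 3228 arrays in the Consortium for Functional Glycomics database, limited to those with an available protein sequence. Binding is reported as a within-array Z-score averaged across arrays of one protein sequence and across linkers.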
# [2] = molecular target: GlcNAc(b1-3)Gal(b1-4)GlcNAc(b1-3)GalNAc
# In short: as §1
# [3] = molecular target: GlcNAc(b1-3)Gal(b1-4)GlcNAc(b1-3)[GlcNAc(b1-3)Gal(b1-4)GlcNAc(b1-3)]GalNAc
# In short: as §1
# [4] = molecular target: GlcNAc(b1-3)Gal(b1-4)GlcNAc(b1-6)[Gal(b1-3)]GalNAc
# In short: as §1
# [5] = molecular target: GlcNAc(b1-3)Gal(b1-4)GlcNAc(b1-6)[GlcNAc(b1-3)Gal(b1-3)]GalNAc
# In short: as §1
# [6] = molecular target: GlcNAc(b1-3)Gal(b1-4)GlcNAc(b1-6)[GlcNAc(b1-3)]Gal(b1-4)GlcNAc
# In short: as §1
# [7] = molecular target: GlcNAc(b1-3)GalNAc
# In short: as §1
# [8] = molecular target: GlcNAc(b1-3)Man
# In short: as §1
# [9] = molecular target: GlcNAc(b1-3)[GlcNAc(b1-4)][GlcNAc(b1-6)]GlcNAc
# In short: as §1
# [10] = molecular target: GlcNAc(b1-3)[GlcNAc(b1-6)]Gal(b1-4)GlcNAc
# In short: as §1
# [11] = molecular target: GlcNAc(b1-3)[GlcNAc(b1-6)]GalNAc
# In short: as §1
# [12] = molecular target: GlcNAc(b1-4)Gal(b1-4)GlcNAc
# In short: as §1
# [13] = molecular target: GlcNAc(b1-4)GlcNAc
# In short: as §1
# [14] = molecular target: GlcNAc(b1-4)GlcNAc(b1-4)GlcNAc
# In short: as §1
# [15] = molecular target: GlcNAc(b1-4)GlcNAc(b1-4)GlcNAc(b1-4)GlcNAc(b1-4)GlcNAc
# In short: as §1
# [16] = molecular target: GlcNAc(b1-4)GlcNAc(b1-4)GlcNAc(b1-4)GlcNAc(b1-4)GlcNAc(b1-4)GlcNAc
# In short: as §1
# [17] = molecular target: GlcNAc(b1-4)[GlcNAc(b1-6)]GalNAc
# In short: as §1
# [18] = molecular target: GlcNAc(b1-6)Gal(b1-4)GlcNAc
# In short: as §1
# [19] = molecular target: GlcNAc(b1-6)GalNAc
# In short: as §1
# [20] = molecular target: GlcNAc6S(b1-3)Gal(b1-4)GlcNAc
# In short: as §1
# [21] = molecular target: Kdn(a2-3)Gal(b1-3)GalNAc
# In short: as §1
# [22] = molecular target: Kdn(a2-3)Gal(b1-3)GlcNAc
# In short: as §1
# [23] = molecular target: Kdn(a2-3)Gal(b1-4)Glc
# In short: as §1
# [24] = molecular target: Kdn(a2-3)Gal(b1-4)GlcNAc
# In short: as §1
# [25] = molecular target: Kdn(a2-3)Gal(b1-4)[Fuc(a1-3)]GlcNAc
# In short: as §1
# [26] = molecular target: Kdn(a2-6)Gal(b1-4)GlcNAc
# In short: as §1
# [27] = molecular target: Man(a1-2)Man(a1-2)Man(a1-3)Man
# In short: as §1
# [28] = molecular target: Man(a1-2)Man(a1-2)Man(a1-6)[Man(a1-3)]Man
# In short: as §1
# [29] = molecular target: Man(a1-2)Man(a1-3)Man
# In short: as §1
# [30] = molecular target: Man(a1-2)Man(a1-3)[Man(a1-2)Man(a1-6)]Man
# In short: as §1
binder,measurement,setting,value
"Thrombomodulin Extracellular (Mus musculus), P15306 (protein) MLGIFFLGVLAPASLGLSALAKLQPTGSQCVEHECFALFQGPATFLDASQACQRLQGHLMTVRSSVAADVISLLLSQSSMDLGPWIGLQLPQGCDDPVHLGPLRGFQWVTGDNHTSYSRWARPNDQTAPLCGPLCVTVSTATEAAPGEPAWEEKPCETETQGFLCEFYFTASCRPLTVNTRDPEAAHISSTYNTPFGVSGADFQTLPVGSSAAVEPLGLELVCRAPPGTSEGHWAWEATGAWNCSVENGGCEYLCNRSTNEPRCLCPRDMDLQADGRSCARPVVQSCNELCEHFCVSNAEVPGSYSCMCETGYQLAADGHRCEDVDDCKQGPNPCPQLCVNTKGGFECFCYDGYELVDGECVELLDPCFGSNCEFQCQPVSPTDYRCICAPGFAPKPDEPHKCEMFCNETSCPADCDPNSPTVCECPEGFILDEGSVCTDIDECSQGECFTSECRNFPGSYECICGPDTALAGQISKDCDPIPVREDTKEEEGSGEPPVSPTPGSPTGPPSARPVHSGVLIGISIASLSLVVALLALLCHLRKKQGAARAELEYKCASSAKEVVLQHVRTDRTLQKF",glycan array binding signal (z-score),[1],-0.162
same,glycan array binding signal (z-score),[2],-0.528
same,glycan array binding signal (z-score),[3],1.44
same,glycan array binding signal (z-score),[4],0.263
same,glycan array binding signal (z-score),[5],-0.188
same,glycan array binding signal (z-score),[6],-0.325
same,glycan array binding signal (z-score),[7],-0.37
same,glycan array binding signal (z-score),[8],0.187
same,glycan array binding signal (z-score),[9],-0.852
same,glycan array binding signal (z-score),[10],0.36
same,glycan array binding signal (z-score),[11],-0.253
same,glycan array binding signal (z-score),[12],0.222
same,glycan array binding signal (z-score),[13],0.672
same,glycan array binding signal (z-score),[14],1.95
same,glycan array binding signal (z-score),[15],1.75
same,glycan array binding signal (z-score),[16],-0.113
same,glycan array binding signal (z-score),[17],-1.16
same,glycan array binding signal (z-score),[18],0.967
same,glycan array binding signal (z-score),[19],-0.314
same,glycan array binding signal (z-score),[20],-0.079
same,glycan array binding signal (z-score),[21],-0.442
same,glycan array binding signal (z-score),[22],2.1
same,glycan array binding signal (z-score),[23],1.43
same,glycan array binding signal (z-score),[24],1.32
same,glycan array binding signal (z-score),[25],0.111
same,glycan array binding signal (z-score),[26],-0.33
same,glycan array binding signal (z-score),[27],0.237
same,glycan array binding signal (z-score),[28],-0.609
same,glycan array binding signal (z-score),[29],0.82
same,glycan array binding signal (z-score),[30],-1.82

# Reformatted with tabs: part of the list above
binder	measurement	setting	value
Thrombomodulin Extracellular (Mus musculus), P15306 (protein) MLGIFFLGVLAPASLGLSALAKLQPTGSQCVEHECFALFQGPATFLDASQACQRLQGHLMTVRSSVAADVISLLLSQSSMDLGPWIGLQLPQGCDDPVHLGPLRGFQWVTGDNHTSYSRWARPNDQTAPLCGPLCVTVSTATEAAPGEPAWEEKPCETETQGFLCEFYFTASCRPLTVNTRDPEAAHISSTYNTPFGVSGADFQTLPVGSSAAVEPLGLELVCRAPPGTSEGHWAWEATGAWNCSVENGGCEYLCNRSTNEPRCLCPRDMDLQADGRSCARPVVQSCNELCEHFCVSNAEVPGSYSCMCETGYQLAADGHRCEDVDDCKQGPNPCPQLCVNTKGGFECFCYDGYELVDGECVELLDPCFGSNCEFQCQPVSPTDYRCICAPGFAPKPDEPHKCEMFCNETSCPADCDPNSPTVCECPEGFILDEGSVCTDIDECSQGECFTSECRNFPGSYECICGPDTALAGQISKDCDPIPVREDTKEEEGSGEPPVSPTPGSPTGPPSARPVHSGVLIGISIASLSLVVALLALLCHLRKKQGAARAELEYKCASSAKEVVLQHVRTDRTLQKF	glycan array binding signal (z-score)	[16]	-0.113
same	glycan array binding signal (z-score)	[24]	1.32
